From paper PMC3515540
Results are given in words; binding and its absence hold for the method and conditions named.

Sequences of proteins named here, by UniProt entry; tags and fusion partners are left off. A change or cut given only in a name is not applied to a line headed by its entry.
UniProt P25491: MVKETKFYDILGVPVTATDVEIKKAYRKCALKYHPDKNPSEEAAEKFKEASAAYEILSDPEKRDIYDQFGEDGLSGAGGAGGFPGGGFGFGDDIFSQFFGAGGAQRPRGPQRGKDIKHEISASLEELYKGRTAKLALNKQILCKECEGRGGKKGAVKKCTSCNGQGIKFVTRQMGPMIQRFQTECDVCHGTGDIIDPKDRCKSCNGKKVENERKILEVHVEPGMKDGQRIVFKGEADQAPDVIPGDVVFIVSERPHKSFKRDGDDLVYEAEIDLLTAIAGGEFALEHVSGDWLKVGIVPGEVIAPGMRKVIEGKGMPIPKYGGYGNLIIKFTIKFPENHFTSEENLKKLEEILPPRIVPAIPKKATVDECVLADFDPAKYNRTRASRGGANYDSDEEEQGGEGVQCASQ

How the values were obtained:
[1] = target: wild-type Sis1 (yeast) (UniProt P25294); assay: AUC; sedimentation velocity, 250–750 µg/mL protein, 40,000 rpm, 20°C, buffer A with 4 M urea; both purified
[2] = target: wild-type Sis1 (yeast) (UniProt P25294); assay: SEC-MALLS; Superdex 200 10/300 GL, buffer A with 4 M urea, 50–75 µM protein, incubated 1 h at room temperature; both purified
[3] = target: Sis1_Δ_(124–174) (yeast) (UniProt P25294); assay: as above
[4] = target: Sis1_Δ_(121–257) (yeast) (UniProt P25294); assay: as above
[5] = target: SYS (Sis1_(1–121)-Ydj1_(101–255)-Sis1_(258–352)) (yeast) (UniProt P25294+P25491); assay: as above

B1: wild-type Sis1 (protein, UniProt P25294 1-352)
chain: MVKETKLYDLLGVSPSANEQELKKGYRKAALKYHPDKPTGDTEKFKEISEAFEILNDPQKREIYDQYGLEAARSGGPSFGPGGPGGAGGAGGFPGGAGGFSGGHAFSNEDAFNIFSQFFGGSSPFGGADDSGFSFSSYPSGGGAGMGGMPGGMGGMHGGMGGMPGGFRSASSSPTYPEEETVQVNLPVSLEDLFVGKKKSFKIGRKGPHGASEKTQIDIQLKPGWKAGTKITYKNQGDYNPQTGRRKTLQFVIQEKSHPNFKRDGDDLIYTLPLSFKESLLGFSKTIQTIDGRTLPLSRVQPVQPSQTSTYPGQGMPTPKNPSQRGNLIVKYKVDYPISLNDAQKRAIDENF
Q: Which binding [1] does the source give for B1 here?
A: no binding (condition: in 4 M urea)

Q: What about the binding [2] of the same binder?
A: no binding (condition: in 4 M urea)

B2: Sis1_Δ_(124–174) (protein, UniProt P25294)
chain: MVKETKLYDLLGVSPSANEQELKKGYRKAALKYHPDKPTGDTEKFKEISEAFEILNDPQKREIYDQYGLEAARSGGPSFGPGGPGGAGGAGGFPGGAGGFSGGHAFSNEDAFNIFSQFFGGSSTYPEEETVQVNLPVSLEDLFVGKKKSFKIGRKGPHGASEKTQIDIQLKPGWKAGTKITYKNQGDYNPQTGRRKTLQFVIQEKSHPNFKRDGDDLIYTLPLSFKESLLGFSKTIQTIDGRTLPLSRVQPVQPSQTSTYPGQGMPTPKNPSQRGNLIVKYKVDYPISLNDAQKRAIDENF
Q: With B2 as the binder, how does the binding [3] read?
A: no binding (condition: in 4 M urea)

B3: Sis1_Δ_(121–257) (protein, UniProt P25294)
chain: MVKETKLYDLLGVSPSANEQELKKGYRKAALKYHPDKPTGDTEKFKEISEAFEILNDPQKREIYDQYGLEAARSGGPSFGPGGPGGAGGAGGFPGGAGGFSGGHAFSNEDAFNIFSQFFGHPNFKRDGDDLIYTLPLSFKESLLGFSKTIQTIDGRTLPLSRVQPVQPSQTSTYPGQGMPTPKNPSQRGNLIVKYKVDYPISLNDAQKRAIDENF
Q: With B3 as the binder, how does the binding [4] read?
A: no binding (condition: in 4 M urea)

B4: SYS (Sis1_(1–121)-Ydj1_(101–255)-Sis1_(258–352)) (protein, UniProt P25294 1-121; P25491 101-255; P25294 258-352)
chain: MVKETKLYDLLGVSPSANEQELKKGYRKAALKYHPDKPTGDTEKFKEISEAFEILNDPQKREIYDQYGLEAARSGGPSFGPGGPGGAGGAGGFPGGAGGFSGGHAFSNEDAFNIFSQFFGGAGGAQRPRGPQRGKDIKHEISASLEELYKGRTAKLALNKQILCKECEGRGGKKGAVKKCTSCNGQGIKFVTRQMGPMIQRFQTECDVCHGTGDIIDPKDRCKSCNGKKVENERKILEVHVEPGMKDGQRIVFKGEADQAPDVIPGDVVFIVSERPHPNFKRDGDDLIYTLPLSFKESLLGFSKTIQTIDGRTLPLSRVQPVQPSQTSTYPGQGMPTPKNPSQRGNLIVKYKVDYPISLNDAQKRAIDENF
Q: How did the binding [5] turn out when B4 was run?
A: no binding (condition: in 4 M urea)
